# This is a selection; strong and weak results do not stand in their true shares. Calls are pooled over several reports, among them a noisy single-well screen. This is one part of the list.
# Experiments:
# Settings in all cases: stereoisomer not certain
# [1] = target: T1, OR10C1 (Homo sapiens) (UniProt Q96KK4)
# T1 sequence (whole entry): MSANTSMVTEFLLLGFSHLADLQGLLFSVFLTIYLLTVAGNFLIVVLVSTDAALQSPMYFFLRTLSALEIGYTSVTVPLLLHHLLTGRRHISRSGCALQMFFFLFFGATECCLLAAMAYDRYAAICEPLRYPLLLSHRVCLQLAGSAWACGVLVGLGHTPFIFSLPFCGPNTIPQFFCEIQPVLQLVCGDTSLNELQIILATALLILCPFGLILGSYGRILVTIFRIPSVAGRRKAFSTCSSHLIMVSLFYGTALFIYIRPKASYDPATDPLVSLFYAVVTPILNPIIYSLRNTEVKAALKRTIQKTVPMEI
# In short: (§1)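 Transient luciferase assays in mammalian cell lines were common, though methods varied by source. The values come from published papers and their supplementary material, with extra details from the original authors when needed. Responsive refers to a measured signal the original authors judged statistically different from baseline, and non-responsive (inactive) to the remainder.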
# [2] = target: T2, OR10G6 (Homo sapiens) (UniProt Q8NH81)
# T2 sequence (whole entry): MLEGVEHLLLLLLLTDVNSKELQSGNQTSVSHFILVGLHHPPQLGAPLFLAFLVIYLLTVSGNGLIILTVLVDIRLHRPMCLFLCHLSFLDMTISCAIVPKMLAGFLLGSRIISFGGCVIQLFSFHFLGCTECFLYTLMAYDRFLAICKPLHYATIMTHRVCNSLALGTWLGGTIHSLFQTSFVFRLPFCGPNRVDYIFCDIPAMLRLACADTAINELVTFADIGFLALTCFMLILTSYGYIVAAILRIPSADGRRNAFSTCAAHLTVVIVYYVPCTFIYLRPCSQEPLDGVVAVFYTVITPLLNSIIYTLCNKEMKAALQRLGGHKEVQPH
# In short: as §1
# [3] = target: T3, OR10G7 (Homo sapiens) (UniProt Q8NGN6)
# T3 sequence (whole entry): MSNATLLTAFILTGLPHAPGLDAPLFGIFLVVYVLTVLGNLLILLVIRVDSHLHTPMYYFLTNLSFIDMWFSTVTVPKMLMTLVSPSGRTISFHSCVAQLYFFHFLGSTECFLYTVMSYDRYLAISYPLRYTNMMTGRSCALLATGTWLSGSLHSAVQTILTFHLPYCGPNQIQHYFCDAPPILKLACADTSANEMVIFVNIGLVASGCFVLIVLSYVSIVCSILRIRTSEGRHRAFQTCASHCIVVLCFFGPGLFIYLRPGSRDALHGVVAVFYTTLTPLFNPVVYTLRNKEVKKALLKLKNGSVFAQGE
# In short: as §1
# [4] = target: T4, OR10G8 (Homo sapiens) (UniProt Q8NGN5)
# T4 sequence (whole entry): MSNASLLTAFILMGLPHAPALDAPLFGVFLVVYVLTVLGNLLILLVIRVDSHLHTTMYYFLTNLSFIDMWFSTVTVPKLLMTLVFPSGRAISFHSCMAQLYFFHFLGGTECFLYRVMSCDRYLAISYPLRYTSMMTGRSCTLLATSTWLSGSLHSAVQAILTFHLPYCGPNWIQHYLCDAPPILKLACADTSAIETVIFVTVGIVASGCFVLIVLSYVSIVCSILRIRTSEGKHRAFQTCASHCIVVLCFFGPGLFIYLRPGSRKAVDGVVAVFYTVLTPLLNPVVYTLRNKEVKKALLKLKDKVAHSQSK
# In short: as §1
# [5] = target: T5, OR10H1 (Homo sapiens) (UniProt Q9Y4A9)
# T5 sequence (whole entry): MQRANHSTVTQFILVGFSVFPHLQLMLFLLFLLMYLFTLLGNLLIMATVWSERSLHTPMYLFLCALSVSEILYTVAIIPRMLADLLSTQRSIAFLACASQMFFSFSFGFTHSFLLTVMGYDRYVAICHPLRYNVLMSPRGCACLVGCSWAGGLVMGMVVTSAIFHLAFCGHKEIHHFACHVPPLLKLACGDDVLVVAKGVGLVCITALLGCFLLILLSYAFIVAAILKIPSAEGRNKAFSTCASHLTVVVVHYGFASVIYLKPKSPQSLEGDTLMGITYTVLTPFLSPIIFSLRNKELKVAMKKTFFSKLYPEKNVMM
# In short: as §1
# [6] = target: T6, OR10H3 (Homo sapiens) (UniProt O60404)
# T6 sequence (whole entry): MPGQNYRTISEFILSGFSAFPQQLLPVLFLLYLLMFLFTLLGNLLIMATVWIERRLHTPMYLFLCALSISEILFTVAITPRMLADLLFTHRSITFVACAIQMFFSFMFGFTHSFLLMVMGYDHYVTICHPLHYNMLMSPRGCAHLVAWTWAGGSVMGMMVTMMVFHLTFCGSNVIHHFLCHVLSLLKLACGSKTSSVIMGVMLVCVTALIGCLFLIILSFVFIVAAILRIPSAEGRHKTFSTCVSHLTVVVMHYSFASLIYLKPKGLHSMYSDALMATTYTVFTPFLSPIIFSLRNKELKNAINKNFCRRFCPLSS
# In short: as §1
# [7] = target: T7, OR10H4 (Homo sapiens) (UniProt Q8NGA5)
# T7 sequence (whole entry): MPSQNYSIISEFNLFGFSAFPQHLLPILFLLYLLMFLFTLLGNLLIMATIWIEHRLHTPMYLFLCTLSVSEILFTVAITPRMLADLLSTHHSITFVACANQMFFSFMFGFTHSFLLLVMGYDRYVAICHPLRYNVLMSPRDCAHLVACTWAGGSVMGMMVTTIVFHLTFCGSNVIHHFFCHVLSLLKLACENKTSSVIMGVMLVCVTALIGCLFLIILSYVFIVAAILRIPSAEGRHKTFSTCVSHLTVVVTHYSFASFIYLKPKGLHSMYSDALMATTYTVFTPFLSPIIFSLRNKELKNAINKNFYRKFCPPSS
# In short: as §1
# [8] = target: T8, OR10J5 (Homo sapiens) (UniProt Q8NHC4)
# T8 sequence (whole entry): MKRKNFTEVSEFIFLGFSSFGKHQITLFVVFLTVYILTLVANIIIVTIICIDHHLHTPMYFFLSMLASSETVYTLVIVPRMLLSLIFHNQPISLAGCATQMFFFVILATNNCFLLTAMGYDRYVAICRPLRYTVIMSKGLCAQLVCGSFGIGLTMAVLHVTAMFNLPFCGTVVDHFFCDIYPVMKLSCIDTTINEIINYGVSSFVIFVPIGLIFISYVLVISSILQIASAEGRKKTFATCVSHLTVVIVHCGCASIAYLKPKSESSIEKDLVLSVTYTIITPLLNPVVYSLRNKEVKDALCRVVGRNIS
# In short: as §1
# [9] = target: T9, OR10K1 (Homo sapiens) (UniProt Q8NGX5)
# T9 sequence (whole entry): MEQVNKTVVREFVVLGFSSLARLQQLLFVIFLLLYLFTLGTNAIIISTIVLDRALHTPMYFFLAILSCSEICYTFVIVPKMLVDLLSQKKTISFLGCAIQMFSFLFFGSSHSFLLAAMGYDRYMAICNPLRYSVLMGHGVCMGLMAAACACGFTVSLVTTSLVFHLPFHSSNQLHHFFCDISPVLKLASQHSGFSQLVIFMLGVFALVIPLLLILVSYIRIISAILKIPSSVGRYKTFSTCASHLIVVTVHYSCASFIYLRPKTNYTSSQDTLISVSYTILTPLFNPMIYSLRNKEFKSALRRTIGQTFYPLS
# In short: as §1
# [10] = target: T10, OR10K2 (Homo sapiens) (UniProt Q6IF99)
# T10 sequence (whole entry): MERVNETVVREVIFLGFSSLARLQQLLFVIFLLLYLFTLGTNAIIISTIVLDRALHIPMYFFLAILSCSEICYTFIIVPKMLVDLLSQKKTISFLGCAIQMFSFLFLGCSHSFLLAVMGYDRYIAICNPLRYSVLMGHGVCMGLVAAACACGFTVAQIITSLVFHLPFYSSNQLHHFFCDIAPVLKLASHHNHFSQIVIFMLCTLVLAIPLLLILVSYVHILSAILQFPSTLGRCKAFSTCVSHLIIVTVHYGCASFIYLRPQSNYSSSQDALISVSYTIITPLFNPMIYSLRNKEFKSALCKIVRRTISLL
# In short: as §1
structure (smiles),measurement,setting,value
CCC(C)=O,odorant receptor agonist call,[1],inactive
same,odorant receptor agonist call,[2],inactive
same,odorant receptor agonist call,[3],active
same,odorant receptor agonist call,[4],inactive
same,odorant receptor agonist call,[5],inactive
same,odorant receptor agonist call,[6],inactive
same,odorant receptor agonist call,[7],inactive
same,odorant receptor agonist call,[8],inactive
same,odorant receptor agonist call,[9],inactive
same,odorant receptor agonist call,[10],inactive

# No new results follow: an excerpt of the list.
structure (smiles),measurement,setting,value
CCC(C)=O,odorant receptor agonist call,[8],inactive
same,odorant receptor agonist call,[9],inactive

# — the M2OR odorant receptor database
